Measured data: PubChem BioAssay AID1259405 (NCATS, 2018)

Assay: 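Knock-downs that lift recombinant protein yield in hamster ovary cells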 (primary screen)
System: Chinese hamster CHO-K1 ovary cells with stable secreted eGFP expression
Reagents: single siRNA against mouse genes, 0.8 pmol siRNA per well (2 µl of 400 nM stock)
Duration: 3 days
Read-out: 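Percent of the per-plate non-targeting control median for intracellular GFP per well by laser scanning cytometry and for cell viability by ATP luminescence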
Scale: GFP, % of control: higher = more GFP per well, higher productivity; viability (ATP), % of control: higher = more viable cells (more ATP)
Call rule: 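Called active when intracellular GFP, relative to negative control, is at or above 120%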
Shown is a random part of about 50,000 reagents tested. Over the whole deposit, about 4,000 (8%) are marked active. 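Mouse siRNA library applied to hamster cells; one well for each siRNA.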

no.	Gene	PubChem SID	GFP, % of control	viability (ATP), % of control	Outcome
1	Or2j3	SID363554159	88	75.9	inactive
2	Or2j3	SID363567606	45.5	62.2	inactive
3	Or2j3	SID363584963	44.2	65.8	inactive
4	Liat1	SID363540631	85.6	87	inactive
5	Liat1	SID363543082	57.2	40.7	inactive
6	Liat1	SID363552575	96.6	74.2	inactive
7	Gsk3b	SID363570797	43.1	44.4	inactive
8	Nudc	SID363541452	134	84.6	active
9	Nudc	SID363556079	72.1	73.2	inactive
10	Nudc	SID363566368	92.9	52.9	inactive
11	Htr3b	SID363574391	113	111	inactive
12	Htr3b	SID363575447	123	76.3	active
13	Htr3b	SID363580023	56.2	77.8	inactive
14	Entr1	SID363550187	79.7	95.5	inactive
15	Entr1	SID363564696	51	52.5	inactive
16	Entr1	SID363588241	92	103	inactive
17	Xpa	SID363569204	85.7	79.3	inactive
18	Xpa	SID363583636	89.9	83.2	inactive
19	Fmo1	SID363573138	105	81.3	inactive
20	Fmo1	SID363577714	76	76.7	inactive
21	Fmo1	SID363581234	87.4	93.1	inactive
22	Ccl9	SID363541279	52.3	49	inactive
23	Ccl9	SID363555906	62.4	75.9	inactive
24	Ccl9	SID363566195	43.5	58.9	inactive

Hits, of those listed so far:
Gene	PubChem SID	GFP, % of control	viability (ATP), % of control	Outcome
Nudc	SID363541452	134	84.6	active
Htr3b	SID363575447	123	76.3	active

More reagents:
no.	Gene	PubChem SID	GFP, % of control	viability (ATP), % of control	Outcome
25	Or2h15	SID363554384	42.8	40.2	inactive
26	Or2h15	SID363567831	37.2	38.1	inactive
27	Or2h15	SID363585188	53.8	79.1	inactive
28	Spem2	SID363552305	94.1	86.5	inactive
29	Spem2	SID363585441	96.6	93.3	inactive
30	Spem2	SID363585792	87.4	102	inactive
31	Ikzf1	SID363572320	106	107	inactive
32	Ikzf1	SID363574080	82.1	79.7	inactive
33	Meg3	SID363540165	45.1	54.8	inactive
34	Meg3	SID363561466	66.5	82.8	inactive
35	Meg3	SID363564502	119	62.9	inactive
36	Chml	SID363545331	97.8	45	inactive
37	Chml	SID363548844	86.5	96.6	inactive
38	Chml	SID363562650	56.5	56.9	inactive
39	Alpk3	SID363572214	102	55.7	inactive
40	Alpk3	SID363573974	65	70.4	inactive
41	Cst7	SID363572968	65.8	74.9	inactive
42	Cst7	SID363577544	45	39.6	inactive
43	Cst7	SID363581064	69.2	42.2	inactive
44	Isoc2b	SID363540594	52.9	61.4	inactive
45	Isoc2b	SID363543045	91.9	75.3	inactive
46	Isoc2b	SID363552538	77.5	54.6	inactive
47	Cd19	SID363550216	43.2	98.2	inactive
48	Cd19	SID363564725	94.1	88.6	inactive
49	Cd19	SID363588270	116	115	inactive
50	Gpr4	SID363571063	120	99.6	inactive
51	Gpr4	SID363571415	97.8	74	inactive
52	Gpr4	SID363571767	71.7	73.2	inactive
53	Rexo1	SID363546099	106	91	inactive
54	Rexo1	SID363549612	73.6	63.3	inactive
55	Rexo1	SID363563418	79	75.4	inactive
56	Tmem59	SID363554540	65.2	71	inactive
57	Tmem59	SID363567987	104	60.6	inactive
58	Tmem59	SID363586046	80.5	67.8	inactive
